Experimental findings from PubChem BioAssay AID248 (DTP/NCI, 2004) are described below.

The list is a part of this screen's results and no random one: it is rich in T/C values a quarter to a half above the control, in often repeated tests (any T/C) and in doses without a T/C. Other doses and runs of a compound stand elsewhere. T/C is the treated group as % of the vehicle group. Some entries give survivors of the animals treated and no T/C: the source files T/C as zero there, which appears to mark a toxic dose or a test without result, not a measured value. Some survivor counts are full or nearly so, which does not show that the dose was tolerated: the source hardly ever lists a survival T/C far under the control, and the zero likely stands for such cases as well. Survivors were counted at the toxicity check, usually on the fifth day, unless a day is given; later deaths do not show. Schedules are NCI's codes, read here as Q, the interval in days (D) or hours (H), X, the number of doses. Some schedule codes hold Z or #, which are not explained here. Some structures stand for samples that the source files as different forms (salt, stereo form or complex); doses refer to the form tested. Some doses were run more than once; the values are given in rising order. Where survival is the endpoint, the PubChem record calls one and a half times the control and up active, and a quarter to a half above the control has no call in these data; cut-offs in other NCI protocols can differ.

The subject of the assay is L1210 leukemia ip in BDF1 mice, survival T/C. Nature of the assay: NCI In Vivo Anticancer Drug Screen. Data for tumor model L1210 Leukemia (intraperitoneal) in B6D2F1 (BDF1) mice. To be noted: T/C endpoint: mean survival time, higher T/C = longer survival.
The mark [1] stands for this setting: dose: 200.0 mg/kg/injection, schedule: Q01DX001 (ip), vehicle: Klucel (hydroxypropylcellulose) (HPC).
The mark [2] stands for this setting: dose: 400.0 mg/kg/injection, schedule: Q04DX002 (ip), vehicle: saline with Tween-80.
The mark [3] stands for this setting: dose: 200.0 mg/kg/injection, schedule: Q01DX001 (ip), vehicle: saline.
Setting [4] is: dose: 400.0 mg/kg/injection, schedule: Q01DX001 (ip), vehicle: saline.
Where [5] appears, read: dose: 400.0 mg/kg/injection, schedule: Q04DX003 (ip), vehicle: Klucel (hydroxypropylcellulose) (HPC).
Where [6] appears, read: dose: 100.0 mg/kg/injection, schedule: Q01DX Z (ip), vehicle: carboxymethylcellulose (CMC).
Where [7] appears, read: dose: 400.0 mg/kg/injection, schedule: Q04DX003 (ip), vehicle: saline with Tween-80.
Setting [8] is: dose: 200.0 mg/kg/injection, schedule: Q01DX009 (ip), vehicle: Klucel (hydroxypropylcellulose) (HPC).
Setting [9] is: dose: 400.0 mg/kg/injection, schedule: Q01DX009 (ip), vehicle: Klucel (hydroxypropylcellulose) (HPC).
Setting [10] is: dose: 100.0 mg/kg/injection, schedule: Q04DX003 (ip), vehicle: Klucel (hydroxypropylcellulose) (HPC).
Setting [11] is: dose: 200.0 mg/kg/injection, schedule: Q04DX003 (ip), vehicle: Klucel (hydroxypropylcellulose) (HPC).
[12] abbreviates: dose: 100.0 mg/kg/injection, schedule: Q01DX009 (ip), vehicle: saline with Tween-80.
The mark [13] stands for this setting: dose: 200.0 mg/kg/injection, schedule: Q04DX002 (ip), vehicle: Klucel (hydroxypropylcellulose) (HPC).

Regarding `CCC[As](=O)(O)c1ccc(Cl)cc1`, the survivor count is on record as 0 of 3 (dose: 50.0 mg/kg/injection, schedule: Q01DX001 (ip), vehicle: Klucel (hydroxypropylcellulose) (HPC)); 0 of 3 (dose: 100.0 mg/kg/injection, schedule: Q01DX001 (ip), vehicle: Klucel (hydroxypropylcellulose) (HPC)); 0 of 3 under setting [1]; 0 of 3 (dose: 400.0 mg/kg/injection, schedule: Q01DX001 (ip), vehicle: Klucel (hydroxypropylcellulose) (HPC)).

`COc1ccc(NC(=O)C(CC(C(C)=O)C(=O)Nc2ccc(OC)cc2)C(C)=O)cc1` (configuration not stated): the survivor count (dose: 200.0 mg/kg/injection, schedule: Q01DX009 (ip), vehicle: saline with Tween-80) is reported as 6 of 6.

As for `O=S(=O)(O)n1nc2ccccc2c1-c1ccccc1`, the survivor count under setting [2] is on record as 2 of 3.

Regarding `Cc1ccc(Nc2cc(=O)[nH]c(N)n2)cc1`, the survivor count (dose: 200.0 mg/kg/injection, schedule: Q01DX Z (ip), vehicle: methylcellulose (MC)) is reported as 1 of 6.

With `CC12CC3(O)CCC1CCC2C(=O)C3` (configuration not stated), the survivor count (dose: 200.0 mg/kg/injection, schedule: Q01DX009 (ip), vehicle: saline) is 6 of 6.

For `C=CCN(C(=O)C=C)C1CCCCC1`, the survivor count reads like this: under setting [3], 2 of 4; under setting [4], 1 of 4.

Turning to `O=c1cc(NCc2ccccc2)[nH]c(=O)[nH]1`, the survivor count under setting [1] was 5 of 5.

Turning to `CN(C)C=Nc1ccc(Cl)cc1`, the survivor count by setting is: (dose: 100.0 mg/kg/injection, schedule: Q01DX001 (ip), vehicle: saline) 0 of 4; (dose: 200.0 mg/kg/injection, schedule: Q01DX001 (ip), vehicle: other) 0 of 6; under setting [3], 0 of 4; (dose: 400.0 mg/kg/injection, schedule: Q01DX001 (ip), vehicle: other) 0 of 6; under setting [4], 0 of 4.

Turning to `CCN(CC)c1ccc(C(=C(c2ccc(N(CC)CC)cc2)c2ccc(N(CC)CC)cc2)c2ccc(N(CC)CC)cc2)cc1`, the survivor count under setting [5] was 6 of 6.

As to `CS(=O)(=O)Oc1ccccc1OS(C)(=O)=O`, the survivor count under setting [2] is reported as 0 of 3.

For the compound `CC1CN(C(=O)CCl)c2ccccc2N1C(=O)CCl` (configuration not stated), the survivor count runs as follows: (dose: 12.5 mg/kg/injection, schedule: Q01DX Z (ip), vehicle: carboxymethylcellulose (CMC)) 3 of 6; (dose: 25.0 mg/kg/injection, schedule: Q01DX Z (ip), vehicle: carboxymethylcellulose (CMC)) 0 of 6; (dose: 50.0 mg/kg/injection, schedule: Q01DX Z (ip), vehicle: carboxymethylcellulose (CMC)) 0 of 6; under setting [6], 0 of 6.

Turning to `C/C=C1\C[C@@H]2C(OC)Nc3cc(O)c(OC)cc3C(=O)N2C1` (some centres not stated), the survivor count runs as follows: (dose: 0.37 mg/kg/injection, schedule: Q01DX009 (ip), vehicle: saline) 1 of 3; (dose: 0.75 mg/kg/injection, schedule: Q01DX009 (ip), vehicle: saline) 1 of 3.

On to `CC(C)C(CN)(CCN1CCCCC1)Cc1cccc2ccccc12` (configuration not stated), for which the survivor count (dose: 200.0 mg/kg/injection, schedule: Q04DX003 (ip), vehicle: saline with Tween-80) is 1 of 6 and the survivor count under setting [7] is listed as 0 of 6.

For the compound `CCN(CC)C(C)CN1c2ccccc2Sc2ccccc21` (configuration not stated), the survivor count is reported as 4 of 4 (dose: 50.0 mg/kg/injection, schedule: Q04DX003 (ip), vehicle: saline); 6 of 6 under setting [8]; 4 of 6 under setting [9]; 2 of 4 (dose: 400.0 mg/kg/injection, schedule: Q04DX003 (ip), vehicle: saline).

As for `Cc1c(N=Cc2ccccc2)c(=O)n(-c2ccccc2)n1C`, the survivor count (dose: 200.0 mg/kg/injection, schedule: Q01DX009 (ip), vehicle: gum acacia) is given as 6 of 6.

As for `CC1C=C(Br)C(=O)c2ccccc2N1S(C)(=O)=O` (configuration not stated), the survivor count was 1 of 6 (dose: 50.0 mg/kg/injection, schedule: Q01DX009 (ip), vehicle: Klucel (hydroxypropylcellulose) (HPC)); 6 of 6 (dose: 50.0 mg/kg/injection, schedule: Q04DX003 (ip), vehicle: Klucel (hydroxypropylcellulose) (HPC)); 0 of 6 and 5 of 6 under setting [10]; 1 of 6 under setting [11]; 2 of 6 under setting [5].

Take `N#Cc1nc2c3ccccc3c3ccccc3c2nc1C#N`: the survivor count (dose: 150.0 mg/kg/injection, schedule: Q01DX009 (ip), vehicle: other) is listed as 6 of 6.

In the case of `COc1cccc(OC)c1OC(=O)Nc1cccc(SC)c1`, the survivor count under setting [12] is reported as 3 of 3.

`CC(N)CC12CC3CC(CC(C3)C1)C2` (configuration not stated): the survivor count is recorded as 2 of 3 (dose: 100.0 mg/kg/injection, schedule: Q04DX002 (ip), vehicle: saline); 1 of 3 (dose: 200.0 mg/kg/injection, schedule: Q04DX002 (ip), vehicle: saline); 0 of 3 (dose: 400.0 mg/kg/injection, schedule: Q04DX002 (ip), vehicle: saline).

As to `COc1cc(O)c2c(c1)Cc1cc(C)cc(O)c1C2=O`, the survivor count by setting is: (dose: 50.0 mg/kg/injection, schedule: Q04DX002 (ip), vehicle: Klucel (hydroxypropylcellulose) (HPC)) 3 of 3; (dose: 100.0 mg/kg/injection, schedule: Q04DX002 (ip), vehicle: Klucel (hydroxypropylcellulose) (HPC)) 3 of 3; under setting [13], 0 of 3; (dose: 400.0 mg/kg/injection, schedule: Q04DX002 (ip), vehicle: Klucel (hydroxypropylcellulose) (HPC)) 0 of 3.

In the case of `CC[CH](C)[Hg][c]1cccc2ccccc12` (configuration not stated), the survivor count is 6 of 6 under setting [8] and 6 of 6 under setting [9].

Turning to `FC(F)(F)c1nc2cccc3c2n1CCC3`, the survivor count under setting [7] is on record as 2 of 6.

As to `CCCCCCCCCCCCCCCCNS(=O)(=O)c1ccc(NN)cc1`, the survivor count under setting [5] is on record as 6 of 6.

Turning to `Cc1ccc(NC(=S)NC(Cc2ccccc2)c2ccccc2)cc1` (configuration not stated), the survivor count under setting [10] is recorded as 6 of 6.

`Cc1ccc(C[As](C)(=O)O)cc1`: the survivor count under setting [10] is 2 of 6, the survivor count under setting [11] was 2 of 6 and the survivor count under setting [5] was 0 of 6.

For the compound `Nc1ncc(C=O)c(N)n1`, the survivor count (dose: 25.0 mg/kg/injection, schedule: Q01DX009 (ip), vehicle: Klucel (hydroxypropylcellulose) (HPC)) is reported as 2 of 3.

For `CC(C)N(C)N=Nc1n[nH]nc1C(N)=O`, under setting [6], the T/C was 136 % of control.

In the case of `c1ccc2c(c1)Cc1cc3ccccc3nc1-2`, the survivor count under setting [12] is given as 6 of 6.

Turning to `CN(C)N=Nc1ccc(Cl)cc1`, for the setting “dose: 400.0 mg/kg/injection, schedule: Q01DX001 (ip), vehicle: saline with Tween-80”, the survivor count is 2 of 10.

Regarding `COc1ccc(/C=N\NC(=O)N/N=C/c2ccc(OC)c(Br)c2)cc1Br`, the survivor count under setting [13] is 3 of 3.

With `N=C(N=C(N)N)N(Cc1ccccc1)Cc1ccccc1`, the survivor count reads like this: (dose: 50.0 mg/kg/injection, schedule: Q01DX001 (ip), vehicle: water) 0 of 6; (dose: 100.0 mg/kg/injection, schedule: Q01DX001 (ip), vehicle: water) 2 of 6; (dose: 200.0 mg/kg/injection, schedule: Q01DX001 (ip), vehicle: water) 2 of 6; (dose: 400.0 mg/kg/injection, schedule: Q01DX001 (ip), vehicle: water) 1 of 6.

On to `O=C(/C=C/c1ccccc1)c1ccc(O)cc1O`, for which the survivor count under setting [4] is on record as 2 of 4.

Take `COC1CCN(CCCn2c3ccccc3c3ccc(C(C)=O)cc32)CC1`: the survivor count under setting [4] is given as 1 of 6.

`CN(C)c1ccc(C=NCCCNC2CCCCC2)cc1`: the survivor count by setting is: (dose: 100.0 mg/kg/injection, schedule: Q04DX003 (ip), vehicle: other) 5 of 6; under setting [3], 2 of 6; under setting [4], 0 of 6.
